Reference: PubChem BioAssay AID1259283 (Sanger Institute, 2017)
Test: 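Kinases whose silencing adds to targeted drugs in killing colon cancer cells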 (primary screen). Cell system: HT115 colorectal cancer cells. Knock-down reagent: siRNA pool against human genes. Conditions: anchor drug given one day after siRNA: BYL719 at 1 µM, cetuximab at 5 µg/ml, trametinib at 10 nM, or DMSO vehicle alone. Read-out: 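Per-drug synergy scores plus replicate-mean viability relative to non-targeting pool #2 wells, also expressed as a robust z-score based on control wells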. Scale: robust z-score, knock-down alone: higher = more viable cells after knock-down. Call rule: 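Essential gene: robust z-score less than -3 with no drug added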. Meaning of the calls: active = essential (z below -3, no drug); inactive = no change without drug.
This is one part, drawn at random, of 794 deposited reagents. 14 of all reagents (1.8%) were called active. 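Calls reflect only viability loss without drug; drug synergy does not enter the call.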 Further read-outs or replicates are left out here. The record does not give: the amount of reagent, the time to read-out.

STK11 gave robust z-score, knock-down alone -2.22; inactive.
Depletion of CSNK2A2 gave: robust z-score, knock-down alone -1.93; inactive.
ACVR1C scored robust z-score, knock-down alone 0.789; inactive.
DGUOK scored robust z-score, knock-down alone 0.789; inactive.
SRC gave robust z-score, knock-down alone 0.549; inactive.
SMAD4 gave robust z-score, knock-down alone 0.453; inactive.
Depletion of MAP3K1 gave: robust z-score, knock-down alone 0.314; inactive.
With knock-down of PANK2, the record shows robust z-score, knock-down alone 0.641; inactive.
Against WNK1, the values are robust z-score, knock-down alone -0.991; inactive.
CSK scored robust z-score, knock-down alone 0.789; inactive.
KDR showed robust z-score, knock-down alone 0.789; inactive.
Against AK2, the entry reads robust z-score, knock-down alone 0.789; inactive.

A stretch taken from the entries so far, for reference:
DGUOK → robust z-score, knock-down alone = 0.789; Call = inactive
SRC → robust z-score, knock-down alone = 0.549; Call = inactive

Continued:
Depletion of IP6K3 gave: robust z-score, knock-down alone -1.36; inactive.
Silencing of GUCY2D resulted in: robust z-score, knock-down alone -1.97; inactive.
After knock-down of LATS1, the screen gave robust z-score, knock-down alone 0.74; inactive.
CDKN2C showed robust z-score, knock-down alone -2.1; inactive.
IGF1R gave robust z-score, knock-down alone 0.689; inactive.
After knock-down of IPPK, the record shows robust z-score, knock-down alone -0.823; inactive.
Silencing of EFNA3 came out at: robust z-score, knock-down alone 0.0589; inactive.
SGK3 scored robust z-score, knock-down alone 0.789; inactive.
After knock-down of HSPB8, the record shows robust z-score, knock-down alone 0.406; inactive.
AMHR2 showed robust z-score, knock-down alone 0.789; inactive.
For CSNK2B, the values are robust z-score, knock-down alone -0.499; inactive.
Against NTRK2, the entry reads robust z-score, knock-down alone -0.221; inactive.
For ALPK2 the deposit lists robust z-score, knock-down alone 0.789; inactive.
With knock-down of RPS6KA1, the screen gave robust z-score, knock-down alone 0.789; inactive.
NR2F2 showed robust z-score, knock-down alone -1.85; inactive.
Against RAD21 the deposit lists robust z-score, knock-down alone -0.424; inactive.
